Results published in publication PMC5489313, “Structural mechanism of ATP-independent transcription initiation by RNA polymerase I” (eLife, 2017).
No constants are given. Whether binding was seen depends on the method and setting. Some entries that bind do so weakly or less than the wild type.

B1: Rrn11 (natural protein, S. cerevisiae)
chain: MFEVPITLTNRKFAQRRKLKYQYINYISRRFDRISKKSTTTDSLPTPENSAAENNDEEEGQNSEAGTYRRSVLQQKKRRRERHWRSVVGEIYSTTESETDSQEEETEEGGEHDTGIDKEDSDEERKFWKKYEKPEKSFEIWRTVSSQNKQPINKQKMTYHNFKKIEKIPLRKMEIPLLHCTKENKLYFQSISRGLEPLKTSTSEVRNYRTRHIVTLTDLLHLNVSRHNWSLAYKIFATLIRIPGVQIKSLWGIGVEILDNLSNSSSGLDFLQWMCQIYSSKSRFVQNINYRSIVPPFQTGSRTHTAKFAITYLWSSLINCQKSMEPSSNIIDKPFDTENDLLQELIDKISEWVLTPPFMEDAEVWFIYASCHLLKADTLSRQFVNDNKNNDLIGLDRDIKINQVIKHIHYVRTFLKICLDKGGFAVPSRLIENQLKSFESRLYGEAQDIQERDVANVYDSIDNSSVENSFGDVYETNAEFLDTQLMDLSPEDNGLDEMHYSDEDSSE
notes: Rrn11, Core Factor subunit, S. cerevisiae; Stood in the assay as a subunit of Core Factor; source: E. coli BL21-CodonPlus(DE3)-RIL, co-expressed as Core Factor from pET-CF, purified (Ni-NTA, HiTrap Heparin, HiTrap Q)
B2: Rrn7 (protein, UniProt P40992 1-514)
chain: MSTFIRGPICGTDNCPSRLWRIIDGRRTCQYGHVMEGDVEFNDDEDDLNGLGAGVITRRLNLTTNATGSFQSSQLTNSQLLQQQQRQSHKKFKKLIGHEAKLLFLKSFQFILKRQIRWLITEMRFPKEFEHVAKIIWLKILKTINDQPQEELKLQLHMTSTISILYLASTHLSLPVYTCDYIKWICTAKMPYFQASEILPKSWRIQLPNYYVSILEGSISPFNGQLYNKIALTCGMIHFKEFFNSEISCQGLLLKLVMQCALPPEFYFYTKQVIEFEETDIRNLTLWERTDERHTGRVSNHAELRVLSYFMLTINWMLSFDRDRQYPLKWILSLTESLTQRTTTSESIGRNIVKVVYPDKPTSSDYFQWSEEETLEFLKWMEKQFLPTQTKSLHNENGSMEMTIDQKIARRKLYKIFPLDREANHDGEFNDSTHQLTFIEDLQERYAKQTPFFESNKIRDSLNYQEANPPARKEAIGRLLTHIASQLLVDFAISKEQLKDCISRIKNACLHRMN
B3: TATA-box Binding Protein (protein, UniProt P13393 1-240)
chain: MADEERLKEFKEANKIVFDPNTRQVWENQNRDGTKPATTFQSEEDIKRAAPESEKDTSATSGIVPTLQNIVATVTLGCRLDLKTVALHARNAEYNPKRFAAVIMRIREPKTTALIFASGKMVVTGAKSEDDSKLASRKYARIIQKIGFAAKFTDFKIQNIVGSCDVKFPIRLEGLAFSHGTFSSYEPELFPGLIYRMVKPKIVLLIFVSGKIVLTGAKQREEIYQAFEAIYPVLSEFRKM

Legend:
Experiment in all cases: cryo-EM structure; Pol I Initial Transcribing Complex assembled from Pol I, Rrn3, Core Factor and TBP on a biotinylated rDNA promoter scaffold with a 17-nt mismatched bubble and a 6-nt RNA; held on streptavidin beads, eluted with EcoRI, crosslinked with 0.185% glutaraldehyde; three states classified from one sample; both purified
Rrn6 (S. cerevisiae) = molecular target: T1, Rrn6 (S. cerevisiae) (UniProt P32786)
T1 sequence: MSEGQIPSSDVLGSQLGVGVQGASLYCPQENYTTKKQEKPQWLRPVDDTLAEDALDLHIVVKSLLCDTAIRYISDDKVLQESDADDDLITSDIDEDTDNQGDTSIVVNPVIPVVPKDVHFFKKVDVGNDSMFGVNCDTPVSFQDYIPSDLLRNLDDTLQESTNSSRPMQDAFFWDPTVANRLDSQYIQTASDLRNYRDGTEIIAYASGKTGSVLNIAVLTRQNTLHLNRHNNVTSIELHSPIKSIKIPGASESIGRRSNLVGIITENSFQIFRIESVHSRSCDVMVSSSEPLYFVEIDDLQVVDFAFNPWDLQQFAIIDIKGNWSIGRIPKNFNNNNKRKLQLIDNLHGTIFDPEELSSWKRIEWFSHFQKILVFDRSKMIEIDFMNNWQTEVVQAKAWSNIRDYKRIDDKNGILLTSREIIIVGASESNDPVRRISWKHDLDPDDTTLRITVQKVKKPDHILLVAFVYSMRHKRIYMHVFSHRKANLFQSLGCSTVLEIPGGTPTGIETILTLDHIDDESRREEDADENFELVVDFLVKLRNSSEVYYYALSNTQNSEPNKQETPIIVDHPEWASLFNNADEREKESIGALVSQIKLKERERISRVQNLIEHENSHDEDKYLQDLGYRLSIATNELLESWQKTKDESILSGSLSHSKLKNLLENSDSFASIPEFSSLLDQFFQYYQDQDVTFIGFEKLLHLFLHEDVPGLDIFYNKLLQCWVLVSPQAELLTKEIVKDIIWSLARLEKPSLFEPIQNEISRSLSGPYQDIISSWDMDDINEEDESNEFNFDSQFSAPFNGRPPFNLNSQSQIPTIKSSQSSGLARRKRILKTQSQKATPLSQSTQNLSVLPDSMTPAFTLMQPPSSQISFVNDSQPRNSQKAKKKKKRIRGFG

Rrn11 (S. cerevisiae) = molecular target: T2, Rrn11 (S. cerevisiae) (UniProt Q04712)
T2 sequence: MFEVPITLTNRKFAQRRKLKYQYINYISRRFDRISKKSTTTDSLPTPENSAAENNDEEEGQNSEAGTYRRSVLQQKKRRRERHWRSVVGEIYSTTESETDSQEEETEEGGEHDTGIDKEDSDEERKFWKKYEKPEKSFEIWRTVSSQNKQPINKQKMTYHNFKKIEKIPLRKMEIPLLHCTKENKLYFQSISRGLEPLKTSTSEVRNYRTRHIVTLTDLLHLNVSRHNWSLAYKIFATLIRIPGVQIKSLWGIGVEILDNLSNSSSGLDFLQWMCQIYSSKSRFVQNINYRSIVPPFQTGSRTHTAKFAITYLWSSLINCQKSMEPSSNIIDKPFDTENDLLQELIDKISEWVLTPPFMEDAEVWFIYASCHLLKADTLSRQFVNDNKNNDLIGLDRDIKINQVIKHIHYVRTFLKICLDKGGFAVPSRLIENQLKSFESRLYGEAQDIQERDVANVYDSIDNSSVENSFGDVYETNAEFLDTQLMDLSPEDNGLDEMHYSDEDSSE

[1] = molecular target: Core Factor (S. cerevisiae) (UniProt P40992+Q04712+P32786)

Row | binding (Rrn6 (S. cerevisiae)) | binding (Rrn11 (S. cerevisiae)) | binding [1] | Binder
1 | binds |  |  | B1
2 | binds | binds |  | B2
3 |  |  | no binding (tested: ~50 picomole TBP) | B3
